Experimental data reported in PMC5025042.

Biological target: T1, Tgl-His6 (B. subtilis) (UniProt P40746)
T1 sequence: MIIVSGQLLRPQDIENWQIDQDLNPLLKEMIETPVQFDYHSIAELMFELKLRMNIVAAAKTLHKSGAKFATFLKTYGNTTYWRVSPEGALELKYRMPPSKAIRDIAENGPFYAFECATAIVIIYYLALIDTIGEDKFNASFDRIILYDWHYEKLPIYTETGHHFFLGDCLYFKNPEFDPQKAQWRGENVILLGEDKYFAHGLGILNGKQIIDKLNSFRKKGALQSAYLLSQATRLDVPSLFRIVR
Assay: pull-down; Ni2+-NTA beads first incubated with a lysate containing CD1234-His6 or Tgl-His6, then with a CD1231-Strep-containing extract for a further 30 min at room temperature; washed in 200 mM NaCl, 10 mM Tris-HCl pH 8.0, 10% glycerol; immunoblot with anti-Strep and anti-His6

“CD1231-Strep (Clostridium difficile (strain 630Δerm)) (enzyme)” was tested, and the binding was “no binding”.

No constants are given. Whether binding was seen depends on the method and setting. In cells and extracts the contact can be indirect. Sequences can lack the tags named with a protein.
